Data reported in PubChem BioAssay AID2685 (National Center for Advancing Translational Sciences (NCATS), 2010).
This is one part of the list. Shown are side measurements of this screen, not its main read-out; they come without a call. The list favours compounds with an active or inconclusive main result. Words in brackets tell the shape of the fitted curve; partial curves, single points and poor fits give uncertain potencies.

Assay: qHTS Assay for Lipid Storage Modulators in Drosophila S3 Cells;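 on cell number change: cells counted by Cell Tracker Red CMTPX staining in the red channel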
Conditions: BODIPY lipid droplet fluorescence, 18-24 h; for cell number change: measured here: cell count max response, cells fed with added oleic acid
Outline: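 Laser-scanning cytometry quantifies lipid droplet accumulation (500–530 nm total intensity; droplet/cell object ratio) in oleic acid-fed (400 uM added) Drosophila S3 cells treated with a concentration series. 20 uM Triacsin C defined 100% inhibition.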

[1] = measured here: lipid fluorescence (Fed channel) AC50, cells fed with added oleic acid
[2] = measured here: cell number channel AC50, cells fed with added oleic acid

| Compound | cell number change | AC50 [1] | AC50 [2] |
| --- | --- | --- | --- |
| COc1ccc(-c2cc(C)no2)cc1S(=O)(=O)N(C)c1ccc(C)c(C)c1 | -24.4% | 29.1 µM [falling, single point] | – |
| O=C(Cc1ccc(S(=O)(=O)N2CCOCC2)s1)N1CCN(c2cccc(C(F)(F)F)c2)CC1 | -27.2% | 16.4 µM [falling, single point] | – |
| Cc1noc(C(=O)Nc2c(C)nn(Cc3ccccc3)c2C)c1Cl | 5.93% | 5.8 µM [falling, single point] | 4.61 µM [falling, single point] |
| COC(=O)c1ccccc1NC(=O)CCc1ccccc1 | 32.5% | 16.4 µM [rising, partial curve] | 10.3 µM [rising, single point] |
| Cc1ccc(NC(=O)Nc2ccc3c(c2)nnn3C)cc1C | 1.94% | – | – |
| COc1ccc(OC)c(C(C)NC(=S)Nc2ccc(S(=O)(=O)Nc3ncccn3)cc2)c1 (stereo not drawn) | 41.8% | – | 35.5 µM [rising, single point] |
| CCOc1ccc(NC(=O)c2ccc(NCC(=O)N3CCCCCC3)cc2)cc1 | 36.9% | 23.1 µM [rising, single point] | 29.1 µM [rising, single point] |
| C/C(=N\NC(=O)c1ccccc1C)c1cccc([N+](=O)[O-])c1 | – | 0.517 µM [rising, full curve] | 0.366 µM [rising, full curve] |
| CC(/C=N/NC(=O)Cn1nnc(N)n1)=C\c1ccc(C(C)C)cc1 | -23% | 29.1 µM [falling, single point] | – |
| O=C(c1ccc(F)cc1)N1CCC(N2CCOCC2)CC1 | -0.636% | 5.17 µM [falling, partial curve] | – |
| Cc1cc(C(=O)COC(=O)Cc2n[nH]c(=O)c3ccccc23)c(C)n1-c1ccc2c(c1)OCO2 | 0.151% | 4.11 µM [rising, partial curve, poor fit] | – |
| COc1ccc(N(C(=O)c2ccco2)C(C(=O)NC2CCCC2)c2cc(OC)c(OC)c(OC)c2)cc1 (stereo not drawn) | -35.5% | – | 3.66 µM [falling, partial curve, poor fit] |
| CCOC(=O)c1ccc(NC(=O)C2CC(=O)Nc3nc4ccccc4n32)cc1 (stereo not drawn) | -52.8% | 0.116 µM [rising, full curve, poor fit] | 32.6 µM [falling, single point] |
| O=C(Nc1ccccc1)Nc1cccc2cccnc12 | 4.24% | 0.461 µM [rising, partial curve, poor fit] | – |
| Cc1ccc(-c2nc3cnccn3c2Nc2ccccc2)o1 | 11.5% | 0.146 µM [rising, full curve, poor fit] | – |
| COc1ccc(S(=O)(=O)Nc2ccc3c(c2)OCO3)cc1Cl | – | – | 2.31 µM [rising, partial curve] |
| CC(C)(C)Nc1nc(Cl)nc(Nc2ccccc2)n1 | -18% | 0.231 µM [rising, full curve, poor fit] | – |
| COc1ccc([C@H]2CC(=O)C=C(c3ccc(OC)c(OC)c3)C2)cc1 | -46.7% | 5.17 µM [falling, full curve] | 4.61 µM [falling, full curve] |
| CCSc1nnc(NC(=O)c2c(C)noc2C)s1 | -2.78% | 10 µM [falling, single point] | – |

| Compound | cell number change | AC50 [1] | AC50 [2] |
| --- | --- | --- | --- |
| CCCC[C@@H]1CNCCN1CCc1cccc2ccccc12 | -11.7% | 0.184 µM [falling, full curve, poor fit] | 3.26 µM [falling, single point] |
| O=C1CN(S(=O)(=O)c2cc(C(=O)O)ccc2Cl)c2ccccc2N1 | 6.67% | – | – |
| O=C(CSc1ccc(C(F)(F)F)cc1[N+](=O)[O-])Nc1ccccc1 | – | 0.731 µM [falling, partial curve, poor fit] | – |
| O=C(O)c1cc2c([nH]c1=O)CCCC2 | -37.4% | 0.731 µM [falling, full curve] | 0.013 µM [falling, full curve, poor fit] |
| CC(C)Cn1c(=O)c2c(nc3n2CC(C)CN3Cc2ccccc2)n(C)c1=O (stereo not drawn) | -18.2% | 29.1 µM [falling, single point] | – |
| COC(=O)c1ccccc1NC(=O)CSc1nnc(C(C)NC(=O)c2ccc(Cl)cc2Cl)n1C (stereo not drawn) | 2.42% | 18.4 µM [rising, partial curve] | 6.51 µM [rising, single point] |
| COc1ccc(OC)c(C(=O)CSc2nnc(-c3ccc(OC)c(OC)c3)o2)c1 | 4.06% | 0.00517 µM [falling, full curve, poor fit] | – |
| O=C(c1cccc(Cl)c1)N(Cc1ccco1)C1CCS(=O)(=O)C1 (stereo not drawn) | 22.8% | 18.4 µM [rising, single point] | – |
| Cc1ccc(SCC(=O)OC(C)C(=O)NC2(C#N)CCCCC2)cc1 (stereo not drawn) | – | 0.517 µM [rising, partial curve, poor fit] | – |
| CC(C)(C)NCC(O)COCc1ccc(Cl)cc1 (stereo not drawn) | -16.5% | 0.0651 µM [falling, full curve, poor fit] | – |
| CCOC(=O)c1ccc(-n2c(CCC(=O)O)ccc2-c2ccc(F)cc2)cc1 | 11.3% | 6.51 µM [rising, single point] | – |
| O=c1cc(-c2ccccc2)c2cc(Cl)c(O)c(CN3CCOCC3)c2o1 | 15.5% | 23.1 µM [rising, single point] | 4.11 µM [rising, single point] |
| Nc1cccc(-c2nc3ccccc3s2)c1 | 18.5% | 20.6 µM [rising, partial curve] | 2.06 µM [rising, partial curve] |
| COC(=O)CNC(=O)COC(=O)/C=C/c1ccc(F)cc1 | -12.7% | – | 0.58 µM [rising, full curve] |
| COc1ccc(Cn2nnnc2C(c2cc3cccc(C)c3[nH]c2=O)N2CCOCC2)cc1 (stereo not drawn) | 44.7% | 23.1 µM [rising, partial curve] | 14.6 µM [rising, partial curve] |
| Cc1cccc(C)c1NC(=O)c1cnn(-c2ccccc2)c1C | 1.06% | – | – |
| O=C(NC(Cc1c[nH]c2ccccc12)C(=O)O)/C(=C/c1ccc(F)cc1)NC(=O)c1ccccc1 (stereo not drawn) | 0.362% | 0.731 µM [falling, single point] | – |
| CCOC(=O)N1CCN(C(=O)C2CCC(=O)N2C(C)C)CC1 (stereo not drawn) | -7.1% | – | – |
| O=C(COC(=O)CCC(=O)c1ccc(F)cc1)Nc1ccc(N2CCOCC2)cc1 | -20.3% | 2.59 µM [falling, full curve, poor fit] | 0.82 µM [falling, full curve] |

Fetched by structure from the entries so far (five):

| Compound | cell number change | AC50 [1] | AC50 [2] |
| --- | --- | --- | --- |
| O=C(COC(=O)CCC(=O)c1ccc(F)cc1)Nc1ccc(N2CCOCC2)cc1 | -20.3% | 2.59 µM [falling, full curve, poor fit] | 0.82 µM [falling, full curve] |
| Cc1ccc(SCC(=O)OC(C)C(=O)NC2(C#N)CCCCC2)cc1 (stereo not drawn) | – | 0.517 µM [rising, partial curve, poor fit] | – |
| COc1ccc(Cn2nnnc2C(c2cc3cccc(C)c3[nH]c2=O)N2CCOCC2)cc1 (stereo not drawn) | 44.7% | 23.1 µM [rising, partial curve] | 14.6 µM [rising, partial curve] |
| CC(C)(C)NCC(O)COCc1ccc(Cl)cc1 (stereo not drawn) | -16.5% | 0.0651 µM [falling, full curve, poor fit] | – |
| Nc1cccc(-c2nc3ccccc3s2)c1 | 18.5% | 20.6 µM [rising, partial curve] | 2.06 µM [rising, partial curve] |

Further entries

| Compound | cell number change | AC50 [1] | AC50 [2] |
| --- | --- | --- | --- |
| N#Cc1ccccc1OCc1nnc(-c2ccccc2Br)o1 | 45.4% | – | 18.4 µM [rising, single point] |
| CN(C)c1ccc(/C=N/NC(=O)c2ccco2)cc1 | 13.5% | – | – |
| Cc1cccc(NC(=O)Cn2nnc(C(=O)NCc3ccco3)c2N)c1 | 35.1% | 3.26 µM [rising, partial curve] | 0.517 µM [rising, full curve, poor fit] |
| N#CCCN(C(=O)COc1ccc(F)cc1Br)c1ccccc1F | 35% | – | 29.1 µM [rising, single point] |
| CC1CCN(C(=O)C2CCN(c3nnc(-n4cccc4)s3)CC2)CC1 | – | 6.51 µM [rising, single point] | – |
| CC(C)OC(=O)[C@H]1[C@H](c2ccc(Cl)cc2)[C@@](C#N)(C(N)=O)[C@@H]2C=CC(C(N)=O)=CN21 | 63.1% | 29.1 µM [rising, single point] | 29.1 µM [rising, single point] |
| CC(C)(C)c1ccc(C(=O)Nc2ccc(Oc3cccnc3)nc2)cc1 | -49.1% | 29.1 µM [falling, partial curve, poor fit] | 29.1 µM [falling, single point] |
| CN1CCN(c2ccccc2NC(=O)c2cc(Br)ccc2Cl)CC1 | 6.61% | 29.1 µM [falling, single point] | – |
| CC(C)(C)OC(=O)N1Cc2[nH]c3ccccc3c2C[C@@H]1C(=O)O | -18.3% | 5.17 µM [rising, full curve, poor fit] | – |
| COc1ccc2c(=O)cc(-c3ccccc3)n(C)c2c1 | 25.8% | 8.2 µM [rising, full curve, poor fit] | – |
| COc1ccc(-n2cnnc2SCC(=O)Nc2cc(S(=O)(=O)N3CCCCC3)ccc2C)cc1 | -49.8% | 6.51 µM [rising, partial curve] | – |
| Cc1ccc(CNC(=O)CSc2nc3ccccc3[nH]2)cc1 | – | 6.51 µM [rising, single point] | – |
| O=C(NC(=S)N1CCN(c2ccc(O)cc2)CC1)c1cccs1 | 16.5% | – | 0.13 µM [falling, full curve, poor fit] |
| C/C(=N\Nc1cccc2cccnc12)c1ccccc1O | 32% | – | – |
| C=CCn1c(COc2ccc(F)cc2)nnc1SCC(=O)c1c[nH]c2c(CC)cccc12 | -24.4% | 23.1 µM [falling, partial curve, poor fit] | – |
| CCOC(=O)c1ccccc1Cc1nc2ccccc2c(=O)[nH]1 | -0.29% | 2.59 µM [rising, partial curve, poor fit] | 3.26 µM [rising, partial curve] |
| CCOC(=O)Cc1csc(NC(=O)C2C3C=CC(C3)C2C(=O)O)n1 (stereo not drawn) | 1.39% | 18.4 µM [falling, single point] | – |
| O=c1c(Br)c(Br)cnn1-c1ccccc1 | -7.69% | – | – |
| CCNC(=O)OCC(CC)NC(=O)OCC(C)C (stereo not drawn) | -41.6% | – | 20.6 µM [falling, single point] |
